Data on 26 compounds can be found in the supplement of paper PMC10735217.

The assay deals with HEK293A TEAD-LUC reporter. Briefly: TEAD-luciferase reporter activity (YAP activation), robust Z score vs plate; higher = stronger YAP/TEAD activation. Particulars: 24 h. In general terms: Reporter assays use an easily measured gene product as a stand-in for the process of interest.

Structures can show the parent of a compound that is named as a salt. This is one part of the list. This data set is noisy: repeats of one test often differ as much as different tests do.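 The human kidney-derived cells carry a stably integrated construct of eight TEAD-binding elements driving luciferase, read by luminescence in a drug-repurposing library screen. A compound counts as a hit when its signal is more than five robust Z scores above the plate mean.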

Consider `CC(C)OC(=O)CCC/C=C\C[C@@H]1[C@@H](CC[C@@H](O)CCc2ccccc2)[C@H](O)C[C@@H]1O`, for which the TEAD-luciferase reporter activity runs as follows: (compound concentration: 200 nM) inactive: -1.28; (compound concentration: 2 uM) inactive: -1.12; (compound concentration: 10 uM) inactive: 1.54.

`O=C(O)c1cccnc1` [niacin, controlled-release]: the TEAD-luciferase reporter activity (compound concentration: 2 uM) was inactive: -1.35.

In the case of `O=C(O)c1cccnc1` [Nicotinic Acid59-67-6], the TEAD-luciferase reporter activity is, setting by setting: (compound concentration: 200 nM) inactive: -0.536; (compound concentration: 10 uM) inactive: 2.72.

`CC(C)=CCc1ccc(C(C)C(=O)O)cc1` (configuration not stated): the TEAD-luciferase reporter activity was inactive: -0.172 (compound concentration: 200 nM), inactive: 3.1 (compound concentration: 2 uM) and inactive: 1.94 (compound concentration: 10 uM).

Take `CS(=O)(=O)c1ccc(C(=O)N2CCN(c3ccc(OC4CCN(C5CCC5)CC4)cc3)CC2)cc1`: the TEAD-luciferase reporter activity was inactive: -1.2 (compound concentration: 200 nM), inactive: -1.08 (compound concentration: 2 uM) and inactive: -1.13 (compound concentration: 10 uM).

In the case of `CN/C1=N/N=C(C)/C(C)=N/N=C(/NC)[S][Cu][S]1`, the TEAD-luciferase reporter activity (compound concentration: 200 nM) is inactive: 2.71, the TEAD-luciferase reporter activity (compound concentration: 2 uM) was inactive: 0.727 and the TEAD-luciferase reporter activity (compound concentration: 10 uM) was inactive: 0.149.

For the compound `C[C@@H](N[C@H]1CCN(c2ccc(CC(=O)O)cc2)C1)c1cccc2ccccc12`, the TEAD-luciferase reporter activity (compound concentration: 200 nM) was inactive: -1.15, the TEAD-luciferase reporter activity (compound concentration: 2 uM) was inactive: -0.259 and the TEAD-luciferase reporter activity (compound concentration: 10 uM) is inactive: -1.31.

For `COC(=O)c1ccc(OC(=O)CCCCCCC(=O)NO)cc1` [Methylparaben suberohydroxamic acid phenyl ester], the TEAD-luciferase reporter activity was inactive: 0.0516 (compound concentration: 200 nM), inactive: 0.131 (compound concentration: 2 uM) and inactive: -0.278 (compound concentration: 10 uM).

With `CCCCOC(=O)N1CCN(C(=O)C(CP(=O)(OCOC(=O)OC(C)C)OCOC(=O)OC(C)C)NC(=O)c2cc(N3CCC(OC)C3)nc(-c3ccccc3)n2)CC1` (configuration not stated), the TEAD-luciferase reporter activity is inactive: -0.827 (compound concentration: 200 nM), inactive: -1.01 (compound concentration: 2 uM) and inactive: -0.444 (compound concentration: 10 uM).

`CC1(C)CCC(NC(=O)[C@@H](N)CCC(=O)O)CC1`: the TEAD-luciferase reporter activity is inactive: -0.358 (compound concentration: 200 nM), inactive: -1.52 (compound concentration: 2 uM) and inactive: -0.853 (compound concentration: 10 uM).

Turning to `CS(=O)(=O)c1ccc(Cn2c3c(c4cc(F)cc(F)c42)CCCC3CC(=O)O)cc1` (configuration not stated), the TEAD-luciferase reporter activity is inactive: -0.559 (compound concentration: 200 nM), inactive: -1.05 (compound concentration: 2 uM) and inactive: -1.33 (compound concentration: 10 uM).

Regarding `CSC1SC[C@H]2C(=O)N(C)[C@@H](C(C)C)C(=O)OC[C@@H](NC(=O)c3cnc4ccccc4n3)C(=O)N[C@@H](C)C(=O)N(C)[C@H]1C(=O)N(C)[C@@H](C(C)C)C(=O)OC[C@@H](NC(=O)c1cnc3ccccc3n1)C(=O)N[C@@H](C)C(=O)N2C` (some centres not stated) [Echinomycin], the TEAD-luciferase reporter activity was inactive: -0.821 (compound concentration: 200 nM), inactive: -1.33 (compound concentration: 2 uM) and inactive: -1.03 (compound concentration: 10 uM).

As to `C/N=C(/Cc1ccc2ccccc2c1)NC`, the TEAD-luciferase reporter activity by setting is: (compound concentration: 200 nM) inactive: -0.809; (compound concentration: 2 uM) inactive: -1.73; (compound concentration: 10 uM) inactive: 0.252.

`COCC1=C(C(=O)OC(C)OC(=O)OC(C)C)N2C(=O)[C@@H](NC(=O)/C(=N\OC)c3csc(N)n3)[C@H]2SC1` (some centres not stated) [cefpodoxime, MiddleBrook]: where the note is “compound concentration: 2 uM”, the TEAD-luciferase reporter activity was inactive: -0.699.

`COCC1=C(C(=O)OC(C)OC(=O)OC(C)C)N2C(=O)[C@@H](NC(=O)/C(=N\OC)c3csc(N)n3)[C@H]2SC1` (some centres not stated): the TEAD-luciferase reporter activity (compound concentration: 200 nM) is inactive: -0.91 and the TEAD-luciferase reporter activity (compound concentration: 10 uM) was active: 13.7.

As to `CCOC(=O)c1ccc(N)cc1` [benzocaine, Arbor Pharmaceuticals], the TEAD-luciferase reporter activity by setting is: (compound concentration: 200 nM) inactive: -0.886; (compound concentration: 2 uM) inactive: -0.66; (compound concentration: 10 uM) inactive: 1.75.

`CCc1c(O)cc(O)c(C(=O)c2ccc(OCCN3CCOCC3)c(OC)c2)c1CC(=O)N(CCOC)CCOC`: the TEAD-luciferase reporter activity (compound concentration: 200 nM) was inactive: -0.76, the TEAD-luciferase reporter activity (compound concentration: 2 uM) is inactive: -0.179 and the TEAD-luciferase reporter activity (compound concentration: 10 uM) was inactive: -2.58.

Regarding `CC(C)c1noc(N2CCC(COc3ccc(-c4ccc(S(C)(=O)=O)cc4)nc3)CC2)n1`, the TEAD-luciferase reporter activity is, setting by setting: (compound concentration: 200 nM) inactive: -0.587; (compound concentration: 2 uM) inactive: -0.973; (compound concentration: 10 uM) inactive: -0.134.

With `CC[C@@H]1OC(=O)[C@H](C)[C@H](O[C@H]2CC(C)(OC)[C@@H](O)C(C)O2)[C@@H](C)[C@H](O[C@@H]2OC(C)CC(N(C)C)C2O)C(C)(OC)C[C@H](C)/C(=N\OC)[C@H](C)[C@@H](O)C1(C)O` (some centres not stated), the TEAD-luciferase reporter activity is, setting by setting: (compound concentration: 200 nM) inactive: -1.23; (compound concentration: 2 uM) inactive: -0.95; (compound concentration: 10 uM) inactive: -0.534.

Consider `CCOC(=O)COc1ccc2c(C)c(CCN(CC)CC)c(=O)oc2c1Cl` [cloricromene], for which the TEAD-luciferase reporter activity was inactive: -0.869 (compound concentration: 200 nM), inactive: -0.446 (compound concentration: 2 uM) and inactive: -1.36 (compound concentration: 10 uM).

Turning to `O=C(NCCN1CCN(c2cccc3c2OC[C@H](CO)O3)CC1)c1ccc(F)cc1`, the TEAD-luciferase reporter activity is inactive: -0.882 (compound concentration: 200 nM), inactive: -0.17 (compound concentration: 2 uM) and inactive: 0.262 (compound concentration: 10 uM).

On to `CCCN(CCC)c1cc(C)nc2c(-c3cnc(N(C)C)cc3C)c(C)nn12`, for which the TEAD-luciferase reporter activity is, setting by setting: (compound concentration: 200 nM) inactive: 0.45; (compound concentration: 2 uM) inactive: -0.977; (compound concentration: 10 uM) inactive: -0.855.

In the case of `CCCc1c2nc(C(=O)O)cc(NC)c2cc2c(=O)cc(C(=O)O)oc12`, the TEAD-luciferase reporter activity reads like this: (compound concentration: 200 nM) inactive: 1.84; (compound concentration: 2 uM) inactive: -1.09; (compound concentration: 10 uM) inactive: -0.806.

Regarding `CN(C)C1CCN(C(=O)c2ccc(NC(=O)Nc3ccc(-c4nc(N5CCOCC5)nc(N5CCOCC5)n4)cc3)cc2)CC1` [gedatolisib], the TEAD-luciferase reporter activity was inactive: -2.01 (compound concentration: 200 nM), inactive: -1.16 (compound concentration: 2 uM) and inactive: 0.236 (compound concentration: 10 uM).

As to `O=c1[nH]c2ccccc2n1CCN1CCN(c2cccc(C(F)(F)F)c2)CC1` [Flibanserin], the TEAD-luciferase reporter activity by setting is: (compound concentration: 200 nM) inactive: -2.46; (compound concentration: 2 uM) inactive: 0.981; (compound concentration: 10 uM) inactive: -0.0168.

As for `CNCc1cc(-c2ccccc2F)n(S(=O)(=O)c2cccnc2)c1` [vonoprazan fumarate], the TEAD-luciferase reporter activity by setting is: (compound concentration: 200 nM) inactive: -2.11; (compound concentration: 2 uM) inactive: -1.77; (compound concentration: 10 uM) inactive: 0.13.
